Assay results published in patent publication US20140370037A1.
Numbering of substitutions follows the chain as printed. These are yes or no findings as the source states them, for the method shown. Some results given as binding are weak or reduced against the parent protein; the word gives no strength.

Amino acid sequences for entries named in this document (tags omitted). A change or cut given only in a name is not applied to a line headed by its entry. Residues count along the entry.
UniProt O88516: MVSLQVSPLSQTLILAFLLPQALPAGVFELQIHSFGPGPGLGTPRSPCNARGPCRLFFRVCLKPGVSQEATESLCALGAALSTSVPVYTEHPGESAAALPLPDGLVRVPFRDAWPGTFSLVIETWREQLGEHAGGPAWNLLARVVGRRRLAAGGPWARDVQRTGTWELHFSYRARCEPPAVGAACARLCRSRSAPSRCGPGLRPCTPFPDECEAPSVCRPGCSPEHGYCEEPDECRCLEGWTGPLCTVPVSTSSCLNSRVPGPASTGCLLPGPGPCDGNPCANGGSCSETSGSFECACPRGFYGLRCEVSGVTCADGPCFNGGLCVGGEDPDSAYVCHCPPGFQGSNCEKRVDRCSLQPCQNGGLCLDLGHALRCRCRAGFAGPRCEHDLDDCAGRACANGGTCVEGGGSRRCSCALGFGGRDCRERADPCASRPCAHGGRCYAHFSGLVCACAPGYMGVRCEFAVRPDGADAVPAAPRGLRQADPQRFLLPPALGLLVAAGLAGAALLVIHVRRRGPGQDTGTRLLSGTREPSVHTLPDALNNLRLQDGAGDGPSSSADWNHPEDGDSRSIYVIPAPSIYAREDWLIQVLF
UniProt Q9NYJ7, residues 27-492: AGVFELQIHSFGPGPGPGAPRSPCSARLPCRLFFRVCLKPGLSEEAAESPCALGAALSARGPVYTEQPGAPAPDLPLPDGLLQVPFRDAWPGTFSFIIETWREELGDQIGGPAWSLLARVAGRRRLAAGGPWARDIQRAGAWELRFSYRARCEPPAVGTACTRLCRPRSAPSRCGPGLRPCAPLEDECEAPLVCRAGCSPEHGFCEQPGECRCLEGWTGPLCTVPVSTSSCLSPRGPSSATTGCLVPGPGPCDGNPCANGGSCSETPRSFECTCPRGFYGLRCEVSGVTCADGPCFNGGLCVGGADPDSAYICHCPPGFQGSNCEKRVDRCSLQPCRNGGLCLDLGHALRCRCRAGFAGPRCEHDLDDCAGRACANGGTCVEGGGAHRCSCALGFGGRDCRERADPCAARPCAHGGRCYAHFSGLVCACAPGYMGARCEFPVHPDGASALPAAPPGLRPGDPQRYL

B1: SC16.4 (antibody, V domains shown)
VH: QIQLVQSGPELKKPGETVKISCKASGYTFTDYSMHWVKQAPGKGLKWMGWINTETGEPGYADDFKGRFAFSLETSASTAYLQINNLKNEDTATYFCARYDGYAMDYWGQGTSVTVSS
VL: DIQMTQTTSSLSASLGDRVTISCRASQDISNYLNWYQQKPDGTVKLLIYYTSRLHSGVPSRFSGSGSGTDYSLTISNLELEDIATYFCQQGDMLPWTFGGGTKLEIK
B2: SC16.8 (antibody, V domains shown)
VH: QAQLQQSGAELVRPGTSVKVSCKASGYAFTNYLIEWVKQRPGQGLEWIGVINPGTGGTNYNENFKGKATLTADKSSSTAYMQLSSLTSDDSAVYFCARSPYDYHEGAMDYWGQGTSVTVSS
VL: EIQMTQSPSSMSASLGDRITITCQATQDIVKNLNWYQQKPGKPPSFLIYYAIELAEGVPSRFSGSGSGSDYSLTISNLESEDFADYYCLQFYEFPFTFGAGTKLELK
B3: SC16.15 (antibody, V domains shown)
VH: QVQLQQSGAELAKPGASVKMSCKASGYTFTRYWIHWIKQRPGQGLEWIGYINPTTVYTEFNQNFKDKATLTADKSSTTASMQLSSLTSEDSAVYYCARGGSNFFDYWGQGTTLTVSS
VL: DIQMTQSPASLAASVGETVAITCRASENIYYNLAWYQQKQGKSPQLLIYTANSLEDGVPSRFSGSGSGTQYSLKINSMQPEDSATYFCKQAYDVPPTFGGGTKLEIK
B4: SC16.34 (antibody, V domains shown)
VH: QIQLVQSGPELKRPGETVKISCKASGYTFTNYGMNWVKQAPGKGLKWMGWINTYTGDPTYADDFKGRFAFSLETSASTAYLQINNLKNEDTATYFCARIGGNSPSDYWGQGTSLTVSS
VL: SIVMTQTPKFLLVSAGDRVTITCKASQSVSNDVAWYQQKPGQSPKLLIYYASNRYSGVPDRFTGSGYGTDFTFTISTVQAEDLAVYFCQQDYSSPWTFGGGTKLEIK
B5: SC16.56 (antibody, V domains shown)
VH: B4 VH with R13K, G49A, D57E, Y80S, N84I, G101D, N102S, S113T
VL: B4 VL with A34V, S56T, T63A, T72S, S93T, K107R
B6: hSC16.25 (antibody, V domains shown)
VL: EIVLTQSPDFQSVTPKEKVTITCSASSSVSYMHWYQQKPDQSPKLLIKDSSKLASGVPSRFSGSGSGTDFTLTINSLEAEDAATYYCQQWSSNPLTFGQGTKLEIK
V domain: QITLKESGPTLVKPTQTLTLTCTFSGFSLSTSGMGVGWIRQPPGKALEWLTDIWWDDNKYYNPSLKSRLTITKDTSKNQVVLTMTNMDPVDTATYYCARRVNYYYDPYYAMDYWGQGTTLVTVS
B7: SC16.103 (antibody, V domains shown)
VH: QVTLKESGPGILKPSQTLSLTCSFSGFSLSTSGMIGWIRQPSGKGLEWLAHIWWDDDKYYNPSLKSQLTISKDSSRNQVFLKITSVDTADTATYYCARRGTAYYFDYWGQGTTLTVSS
VL: DIVLTQSPASLAVSLGQRATISCRASKSVSTSGYSYMHWYQQKPGQPPKLLIYLASNLESGVPARFSGSGSGTDFTLNIHPVEEEDAATYYCQHSRELPLTFGAGTKLELK
B8: SC16.116 (antibody, V domains shown)
VH: QVQLKQSGPGRVQPSQSLSITCTVSGFSLTSNGVVHWVRQSPGKGLEWLGVLWSGGSTDYNAAFISRLSISKDNYKSQVFFKMNSLQANDTAIYYCARNNNRYGAMDYWGQGTSVTVSS
VL: DIVMTQSPSSLTVTAGEKVTMSCTSSQSLLTSGNQKNYLTWYQQKPGQPPKLLIYWASTRESGVPDRFTGSGSGTDFTLTISSLQAEDLAVYYCQNDYSLTFGAGTKLELK
B9: SC16.129 (antibody, V domains shown)
VH: QVQLKESGPGLVAPSQSLSITCTVSSGFSLTDYGVSWIRQPPGKGLEWLGVIWGGGSTYYNSALKSRLSISKDNSKSQVFLELNSLQTDDTAIYYCAKHYGHYAAYWGQGTLVTVSA
VL: DIQMTQSPASQSASLGESVTITCLASQTIGTWLAWYQQKPGKSPQLLIYAATSLADGVPSRFSGSGSGTKFSFKISSLQAEDFVSYYCQQLYSTPYTFGGGTKLEIKR
B10: SC16.131 (antibody, V domains shown)
VH: QVQLKESGPGLVAPSQSLSITCTVSGFSLTNYGVVHWVRQPPGKGLEWLGVIWAGGITNYNSALMSRLSISEDNSKSQVFLKMNSLQTDDTAMYYCARNLGPYAMDYWGQGTSVTVSS
VL: DIQMNQSPSSLSASLGDTITITCHVSQNINVWLSWYQQKPGNIPKLLIQKASNLHTGVPSRFSGSGSGTGFTLTISSLQPEDIATYYCQQGQSYPFTFGSGTKLEIK

Key:
[1] = target: murine DLL3 on 293 cells (mouse) (UniProt O88516); test: flow cytometry on h293-mDLL3 cells
[2] = target: murine DLL3 on 293 cells (mouse) (UniProt O88516); test: flow cytometry on 293-mDLL3 cells; no staining of parental 293 cells
[3] = target: human DLL3 antigen (human) (UniProt Q9NYJ7); test: SPR, Biacore 2000, human DLL3 antigen
[4] = target: human DLL3 antigen (human) (UniProt Q9NYJ7); test: ELISA or flow cytometry screen

| Binder | binding [1] | binding [4] | other results |
| --- | --- | --- | --- |
| B1 | binds | – | – |
| B2 | binds | – | – |
| B3 | binds | – | – |
| B4 | binds | – | – |
| B5 | binds | – | binding [2]: binds |
| B6 | – | – | binding [3]: binds |
| B7 | – | binds | – |
| B8 | – | binds | – |
| B9 | – | binds | – |
| B10 | – | binds | – |
